Library screen at single concentrations

By UniProt entry, the sequences of proteins in these tests, tags left out. Residues count along the entry.
UniProt A4I591, 1-473: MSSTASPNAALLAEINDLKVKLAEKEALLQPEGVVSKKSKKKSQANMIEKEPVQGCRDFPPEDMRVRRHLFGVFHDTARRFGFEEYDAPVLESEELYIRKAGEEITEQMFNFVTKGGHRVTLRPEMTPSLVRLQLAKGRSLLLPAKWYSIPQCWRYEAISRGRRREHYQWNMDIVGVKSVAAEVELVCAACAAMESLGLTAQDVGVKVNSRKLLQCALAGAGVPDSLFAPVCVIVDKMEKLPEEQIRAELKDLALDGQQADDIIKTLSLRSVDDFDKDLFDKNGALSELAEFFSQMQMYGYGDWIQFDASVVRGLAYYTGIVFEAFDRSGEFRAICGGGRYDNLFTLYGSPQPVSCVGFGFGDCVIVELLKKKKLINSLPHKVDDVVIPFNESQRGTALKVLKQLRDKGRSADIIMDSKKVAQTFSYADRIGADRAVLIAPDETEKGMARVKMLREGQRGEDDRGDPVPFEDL
UniProt P9WNZ1, whole entry: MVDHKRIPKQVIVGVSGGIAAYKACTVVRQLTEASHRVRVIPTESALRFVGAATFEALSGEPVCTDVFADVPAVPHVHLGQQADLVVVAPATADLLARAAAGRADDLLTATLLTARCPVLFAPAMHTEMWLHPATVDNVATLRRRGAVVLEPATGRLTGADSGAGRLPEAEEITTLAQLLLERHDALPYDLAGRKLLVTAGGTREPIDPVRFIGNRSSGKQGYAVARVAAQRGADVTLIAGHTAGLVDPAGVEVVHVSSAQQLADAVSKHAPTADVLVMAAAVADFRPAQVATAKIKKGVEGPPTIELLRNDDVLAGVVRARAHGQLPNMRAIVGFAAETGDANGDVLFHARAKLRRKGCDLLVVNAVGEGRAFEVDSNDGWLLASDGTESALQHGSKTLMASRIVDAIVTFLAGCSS

From ChEMBL document CHEMBL3988442, “University of Dundee, Small-Polar-MMV Screening Library” (2021).

LiHisRS: 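Enzyme assay of histidyl-tRNA synthetase; the read-out is not stated. Target: Histidine-tRNA ligase, Leishmania infantum (UniProt A4I591). Compounds at 30 µM. The record gives no direction; compounds that gave an IC50 in retests scored well above the rest, so higher reads as stronger inhibition. The assay is labelled LdHisRS but filed under L. infantum. Of about 69,000 compounds tested this way, about 410 (0.6%) reached 50% or more in at least one test.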
Leishmania in macrophages: 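Cell assay of Leishmania donovani living inside macrophages; the read-out is not stated. Concentration: 30 µM. The record gives no direction; compounds that gave an IC50 in retests scored well above the rest, so higher reads as stronger inhibition. Of about 69,000 compounds tested this way, about 1,000 (1.5%) reached 50% or more in at least one test.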
CoaBC: 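Coenzyme A biosynthesis protein CoaBC, Mycobacterium tuberculosis (UniProt P9WNZ1). Enzyme assay of CoaBC with a phosphate dye (Biomol Green) read at 650 nm. Tested at 30 µM. Direction is inferred from only a few compounds that gave an IC50; most scored high, so higher reads as stronger inhibition. Most strong results did not repeat in a second test. Size under these conditions: about 67,000 compounds, about 40 of them at 50% or above in at least one test.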

Results are given as percent effect. The controls that fix the scale are not given in the record; negative values are as filed. The compounds are a random part of those screened. Two or more numbers in one place are separate tests of the same structure; such repeats can differ widely. A dash means the value is not listed here; it may have been measured.

| # | compound | LiHisRS | Leishmania in macrophages | CoaBC |
|---|---|---|---|---|
| 1 | `Cc1cc2ncn(C(=O)N3CCCC3)c2cc1C` | 1.418 | -11.21 | 1.104 |
| 2 | `CCn1ccnc1CN1CCN(CCCS(C)(=O)=O)CC1C` (configuration not stated) | 27.06 | 1.167 | 4.569 |
| 3 | `Cc1c(O)cccc1C(=O)N1CCCC2(C1)C(=O)N(C)c1ccccc12` (configuration not stated) | 20.65 | 10.13 | -7.627 |
| 4 | `COCCCNC(=O)NCc1ccc(N2CCOC(C)C2)nc1` (configuration not stated) | 14.29 | 6.737 | 1.297 |
| 5 | `CC(C)(C)n1ncc(NCC(O)c2ccccc2)c(Cl)c1=O` (configuration not stated) | 15.96 | 6.494 | 6.734 |
| 6 | `CCN(C)c1ncnc2c1CCN(C(=O)c1cccn1C)CC2` | 19 | 24.51 | -0.1236 |
| 7 | `CCNC(=O)[C@@H]1C[C@@H](N)CN1C(=O)C1(c2ccc(OC)cc2)CCCC1` | 19.54 | 5.792 | 14.09 |
| 8 | `Cc1cc(CN2C[C@@H]3COC[C@H](C(=O)N4CCCCO4)[C@@H]3C2)oc1C` | 18 | - | 5 |
| 9 | `CN(Cc1ccccn1)C1COC2(CCN(Cc3cccnc3)CC2)C1` (configuration not stated) | 13.87 | 17.44 | 10.62 |
| 10 | `O=C(O)C(F)(F)F.O=C(O)C(F)(F)F.[H][C@@]12CN(Cc3cccs3)CCC[C@]1(C(=O)OCC)CN(CC(C)C)C2` | - | 30.54 | - |
| 11 | `CN1CCC(N2CCOC[C@H](OCC(=O)N(C)C)C2)CC1` | 16.22 | 7.05 | 18.66 |
| 12 | `CC(C)n1cnnc1CN(C)Cc1ccoc1` | 10 | 2.653 | 0.7426 |
| 13 | `Cc1c(C)n(Cc2ccccn2)c2nc3c(c(N)c12)CCCC3` | -9.709 | -5.276 | 6.057 |
| 14 | `CC(C)NC(=O)c1cc2c(c3ccccc3n2C)n1C(=O)N(C)C` | 13.76 | 24.66 | -6.694 |
| 15 | `Cc1cccc2sc(NC(=O)CN3CCC(C)CC3)nc12` | -5.333 | 14.81 | 2.066 |
| 16 | `Cc1ccc(-c2ccc(C3CNCCO3)nc2)cc1` (configuration not stated) | 10.14 | - | 8.738 |
| 17 | `COCC1CN(C(=O)c2ccco2)Cc2cn(C)nc21.O=C(O)C(F)(F)F` (configuration not stated) | - | -45.35 and 1.593 | - |
| 18 | `Cc1cc(C)cc(OCCC(=O)N2CCOCC2c2ncon2)c1` (configuration not stated) | 6.154 | -5.325 | 3.035 |
| 19 | `O=C(NCCN1CCCC1)c1cc2c(s1)CCN2c1ncccn1` | 17.12 | 35.65 | 0.2475 |
| 20 | `COc1nn(C)c2c1CCCN(C(=O)c1ccsc1)C2` | 12.35 | -24.03 | 0.6402 |
| 21 | `COC[C@@H]1CC[C@H]2[C@H](CCN2S(=O)(=O)c2ccc(C)cc2)O1` | 2.655 | - | 7.856 |
| 22 | `COCCN(C)CCN1CC2(CCN(C3CCCNC3)CC2)OC1=O` (configuration not stated) | 15.2 | -23.22 | -3.981 |
| 23 | `COC1CCCOC12CCN(C(=O)c1ccc3[nH]nnc3c1)CC2` (configuration not stated) | 14.29 | 28.64 | 2.427 |
| 24 | `CN1CCC(CNC(=O)CCSc2ccc3c(c2)OCCO3)C1` (configuration not stated) | 19.35 | 30.46 | 2.343 |
| 25 | `CCCN1C(=O)C2(CCCCC2)NC1c1cn(C)c(=O)n(C)c1=O` (configuration not stated) | 18.92 | 4.865 | 7.782 |
| 26 | `CCc1cc(N[C@H]2CCC[C@H]2CO)n2nc(C)c(C)c2n1` | 18.52 | 4.92 | 2.806 |
| 27 | `COc1cccc(CN2CCCCCC2c2sccc2C)c1O` (configuration not stated) | 22.47 | 44.1 | 3.73 |
| 28 | `CC(C)n1[nH]c(=O)c2c1NC(=O)CC2c1ccncc1` (configuration not stated) | 25.97 | -16.7 | 2.299 |
| 29 | `O=C(Cn1ccc2ccccc21)N1CCC(Oc2cnccn2)CC1` | 13.91 | 15.8 and 33.18 | 10.78 |
| 30 | `O=C(CNC(=O)C1(c2ccc(F)cc2F)CCC1)Nc1ccccn1` | 14.61 | 7.191 | -6.25 |
| 31 | `CN1C(=O)c2cccc(NC(=O)c3ccc4c(c3)OCCO4)c2C1=O` | 4.301 | 21.74 | 0.1122 |
| 32 | `CN(C)c1nc2n(c(=O)n1)CCN2C(=O)Nc1cccc(Cl)c1` | 4.425 | 30.11 | -4.206 |
| 33 | `CCN(C)C(=O)CN1CCC(c2cc(N3CCOCC3)nc(C)n2)CC1` | 16.67 | -1.668 | 5.159 |
| 34 | `CC(NC(=O)NCCCN(C)S(C)(=O)=O)c1ccc(F)cc1` (configuration not stated) | 4.348 | -10.13 | 5.98 |
| 35 | `Fc1ccc(-c2nc(CN3CCn4c(nnc4C4CC4)C3)co2)cc1` | 5.172 | 12.23 | 0.7833 |
| 36 | `CN(CCC(F)(F)F)Cc1nc2ccccc2c(=O)[nH]1` | 13.79 | 2.666 | 3.64 |
| 37 | `O=C(O)C(F)(F)F.[H][C@@]12CN(Cc3nccs3)C[C@]1([H])CN(C(=O)N1CCOCC1)C2` | - | 28.83 | - |
| 38 | `Clc1ccc(CNc2ccc(Cl)cn2)cc1` | 21.13 | 18 | 5.034 |
| 39 | `CN1CCC(c2cccc(-c3cccc(C(=O)O)c3)n2)CC1` | 7.092 | 23.18 | 19.81 |
| 40 | `CC(C)NC(=O)CC1CC2(CCN(CC3CC3)CC2)Oc2ccccc21.O=C(O)C(F)(F)F` (configuration not stated) | - | -0.2995 | - |
| 41 | `CC(=O)c1ccc(N2CCCC(CO)(Cc3ccccc3F)C2)nc1` (configuration not stated) | -0.8 | 13.31 | -1.809 |
| 42 | `COCCOCCNC(=O)N1CCc2c(F)ccc(F)c2C1` | 27.4 | 22.43 | 4.156 |
| 43 | `COc1cc(NCCNC(=O)c2ccc3[nH]ccc3c2)cc(OC)c1` | 8.73 | 13.24 | -0.9828 |
| 44 | `CCc1cnc(CN(C)C2CCN(CCCS(=O)(=O)NC)C2)o1` (configuration not stated) | 8.85 | -77.72 | -1.263 |
| 45 | `CC(C)NC(=O)c1nc(Cn2c(C(F)(F)F)nc3ccccc32)no1` | -3.529 | 55.95 | -0.3236 |
| 46 | `CN(C)CC1CCCCN1C(=O)c1ccc(N2CCOCC2)cc1` (configuration not stated) | 20.41 | -10.6 | 5.785 |
| 47 | `Cc1cc(Nc2nc(C)cs2)nc(C2CCCCN2CCO)n1` (configuration not stated) | 22.22 | 47.3 | 0.8333 |
| 48 | `Cn1cc(CN(Cc2ccccc2)Cc2ccccn2)cn1` | -4.286 | - | -6.068 |
| 49 | `NC(=O)CN1CCCN(C(=O)c2ccn(-c3ccc(F)cc3)n2)CC1` | 27.27 | 0.5632 | 8.876 |
| 50 | `Cc1nc(CN2Cc3nccn3CC(CN3CCCC3)C2)cs1` (configuration not stated) | 24.32 | - | -10.41 |
| 51 | `CCn1cc(NC(=O)NCC(c2cccc(OC)c2)N(C)C)cn1` (configuration not stated) | 17.86 | 25.75 | 4.689 |
| 52 | `COc1ccc2c(c1)C1(CCN(Cc3cnn(C)c3)CC1)N(C)CC2` | 21.05 | - | -15.03 |
| 53 | `Cc1noc(C2CCN(C(=O)c3ccc(NC4CC4)nc3)CC2)n1` | 14.89 | -2.961 | 3.627 |
| 54 | `Cn1nc(C2CCN(C(=O)c3cccs3)CC2)c2cccnc21` | 17.71 | 7.346 | 0.2451 |
| 55 | `CC1CCN(C(CNC(=O)Cn2cccn2)c2cccs2)CC1` (configuration not stated) | 16.13 | 30.82 | 7.503 |
| 56 | `CN(C)CC1(O)CCN(S(=O)(=O)c2cccc(F)c2)C1` (configuration not stated) | 12.37 | 12.54 and -0.7629 | 4.6 |
| 57 | `Cc1cc(-c2nn3c(C)nnc3s2)n[nH]1` | -4.167 | -31.1 | -0.1242 |
| 58 | `O=C(O)C(F)(F)F.[H][C@]12CCC[C@@]1(COCc1csc(C)n1)CN(Cc1nccs1)C2` | - | 33.89 | - |
| 59 | `O=C([C@@H]1CC[C@@H]2[C@@H](CCN2Cc2ccoc2)O1)N1CCCC1` | 26.42 | - | -4.405 |
| 60 | `COCC(=O)NCCCn1nc2ccccn2c1=O` | 13.25 | -14.14 | 4.937 |
| 61 | `COc1cccc(CNCc2c(C(C)C)nn(C)c2N(C)C)c1OC` | 20 | 2.088 | 2.128 |
| 62 | `Cc1nn(C)c2ncc(NC(=O)N3CCCCCC3)cc12` | 16.07 | 4.467 | -3.353 |
| 63 | `Cc1ccc2c(c1)c(CNC(C)Cn1nc(C)cc1C)nn2C` (configuration not stated) | 38.24 | 22.8 | 8.147 |
| 64 | `CCn1nccc1CN(C)C(=O)Cn1cc2c(n1)c(C)nn2CC` | 25 | 72.98 | 2.405 |
| 65 | `O=C1OC2(CCNCC2)CN1CC(=O)N1CCCC1c1ccco1` (configuration not stated) | 21.15 | 12.65 | -40.3 |
| 66 | `Cl.Cl.O=C(NCc1cncc2c1CCN(Cc1ccoc1)C2)C1CC1` | - | 32.06 | - |
| 67 | `Cc1ccc(C(=O)N2CCn3c(COCC4CC4)cnc3C2C)s1` (configuration not stated) | 18.18 | -27.83 | 3.782 |
| 68 | `O=C(c1cscn1)N1C[C@@H]2[C@@H](C1)OCC(=O)N2CC1CCCC1` | -150 | - | -37.27 |
| 69 | `Cn1c(CS(=O)(=O)c2ccc(Cl)cc2)cc(=O)n(C)c1=O` | 10 | 6.887 | -0.6424 |
| 70 | `CC(C)N1CC2(CCC1=O)CCN(C(=O)c1cc(F)ccc1Cl)CC2` | 16.24 | 18 | 6.723 |
| 71 | `CN(C(=O)c1cccc(NCC(=O)O)c1)C(C1CC1)C1CC1` | 19.58 | 14.75 | -0.7407 |
| 72 | `CCc1ccc(NC(=O)N2C[C@H]3C[C@H](C(=O)NC)[C@@H](C2)O3)cc1` | 4.854 | - | 0.6337 |

Repeated from the top, 6 entries:

compound,LiHisRS,Leishmania in macrophages,CoaBC
Cc1cc2ncn(C(=O)N3CCCC3)c2cc1C,1.418,-11.21,1.104
CCn1ccnc1CN1CCN(CCCS(C)(=O)=O)CC1C (configuration not stated),27.06,1.167,4.569
Cc1c(O)cccc1C(=O)N1CCCC2(C1)C(=O)N(C)c1ccccc12 (configuration not stated),20.65,10.13,-7.627
COCCCNC(=O)NCc1ccc(N2CCOC(C)C2)nc1 (configuration not stated),14.29,6.737,1.297
CC(C)(C)n1ncc(NCC(O)c2ccccc2)c(Cl)c1=O (configuration not stated),15.96,6.494,6.734
CCN(C)c1ncnc2c1CCN(C(=O)c1cccn1C)CC2,19,24.51,-0.1236